# Results from PubChem BioAssay AID1347423 (Functional Genomics Laboratory (NCATS/FGL), 2020).
# Screen size: about 52,000 sequences; about 210 (0.4%) were called active.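 The calls were made as follows: active = gene whose silencing raises cell survival under the drug, median off-target-corrected z-score across its silencing RNAs 2 or more; inactive = the rest.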 The list shows a part of the results.
# Assay: Resistance to Poly (ADP-Ribose) Polymerase inhibitor: Gene Identification via Genome-wide siRNA Screen
# Details: mouse BRCA2 R2336H ES cells, olaparib, CellTiter-Glo viability; stronger effect = higher value
# Source text: The role of Poly (ADP-Ribose) Polymerase (PARP) proteins in DNA repair has been elegantly utilized for the synthetic lethality-based treatment of BRCA-deficient tumors by PARP inhibitors. PARP inhibitors are now being used for treatment of BRCA-deficient breast and ovarian cancers. […] While several mechanisms of drug resistance have been identified, majority of these tumors develop drug resistance due to unknown causes. To identified novel regulators of chemo-resistance in BRCA2-mutated cells, we performed a genome wide siRNA library screen. We have found ES cells expressing a hypomorphic allele of BRCA2 to be hypersensitive to PAPP inhibitors (such as olaparib). We used ES cells expressing a mutant allele of BRCA2 that has a single amino acid substitution at position 2336 (arginine to histidine, R2336H). The screen was conducted using an Ambion (Thermo) Silencer Mouse Genome siRNA collection. The library targets 17,575 mouse genes with 3 siRNAs per gene. TET2 (E130014J05Rik) was identified as a top candidate.
# Transfections were performed in 384 well plates (Corning 3707). Plates were coated with 0.1% gelatin in H2O overnight at ambient temperature. Gelatin solution was aspirated (BioTek EL406) and siRNAs were printed using a Bravo VPrep liquid handler integrated within a BioCel automation platform (Agilent). Cell viability was measured using CellTiter Glo (Promega). For transfections, […] of serum free media containing Lipofectamine RNAiMax […] was added to wells containing siRNA (0.8pmol). Lipid and siRNA were allowed to complex for 45 min at ambient temperature before addition of 1000 cells in DMEM, 30% FBS to yield final transfection mixtures containing 20 nM siRNA in DMEM, 15% FBS. PARPi (olaparib, AZD2281) was added 48 h post-transfection (500 nM) and viability (CellTiter Glo, Promega) was assayed 72 h later on a PerkinElmer Envision 2104 Multilabel plate reader. Ambion Silencer Select Negative Control #2 was incorporated on all screening plates (16 wells) and the median negative control value on each plate was used for normalization. An siRNA targeting Trp53 was used as a positive control. This control yielded a median protective effect of ~1.9 fold versus negative control throughout the screen. The median absolute deviation (MAD) based z-score was calculated for each siRNA. Genes were then ranked by taking the median value for all siRNAs tested against a given gene. Scores were also adjusted for seed-based off-target effects to help deprioritize likely false positives.
row,Sequence,z-score
1,GGUGCUCAAUAAAUGGAAUTT against 6720485C15Rik,inactive: -0.301
2,AGCCGAUCCUGUGCCUGUUTT against BC048355,inactive: -2.64
3,CCCAGAUGGAUUUUUGCAUTT against 1700001E04Rik,inactive: 1.37
4,GGGCUUAAUGGUAAAAUGATT against Slc40a1,inactive: 0.291
5,CCUAGUGAAUCCUCUCGUATT against 4930579C15Rik,inactive: -0.933
6,CCAGUGCGUCACUCAGUAATT against 1700025E21Rik,inactive: 0.668
7,GGUGGAAGAGGUCAAAUAATT against Denr,inactive: -0.65
8,GGAUUCGGGAAGGUGAGAUTT against Cep2,inactive: -0.667
9,GGGCCUGGAAAACAUUGACTT against Ndufa1,inactive: 0.852
10,GGCAAGGAUAAGACAGUAGTT against Hs3st3b,inactive: -1.12
11,GGCUCUACUGGUGAAGAGATT against Zfp459,inactive: -0.337
12,CAUAAAGGUGGCACUAAUATT against 1500041B16Rik,inactive: -0.444
13,GGAGGACAUUGAGAAGGAATT against Tnni3,inactive: -0.149
14,GGCCAUUGCUGGUUCUGCATT against 4930412M03Rik,inactive: -1.25
15,GCUUUGGUCGCUCUCGUGATT against 1700055O19Rik,inactive: -0.385
16,GCAAUCUAUAAGAGGUACATT against Axin2,inactive: -0.343
17,GGAACCAAUCUGUCUCUCCTT against Cbfb,inactive: -0.946
18,CCGUUGACCUGAAAAGGAATT against Clic4,inactive: 0.151
19,GCCAUUGUGACUGGAGACATT against Olfr804,inactive: 0.135
20,GGACUUCAUCAACAACAUCTT against 2510027N19Rik,inactive: 0.824
21,GGAGGUCAUUGUAUGGAACTT against 1110001C20Rik,inactive: 1.17
22,GGAUCUUCCUGGAUGCCAATT against Hps1,inactive: -0.0393
23,GGUAUAAAAUGGAAAACUCTT against Gpr23,inactive: 1.38
24,GGAAGUUUGCUCAAUCUCATT against Jarid2,inactive: 0.853
25,GGCUGUUACUCUCUCUCUCTT against D730001G18Rik,inactive: -0.198
26,GGGAAGAGCCAUCUCUUUUTT against Olfr140,inactive: -0.466

row,Sequence,z-score
1,CGGUUGGUGGCAAUAUCCUTT against Olfr234,inactive: -0.18
2,GGAAGGGAUGCUCAUAGUATT against Hgfac,inactive: 2.69
3,GGACUUGUGAUUCAAGCAUTT against Rad23b,inactive: -0.725
4,CGGUGUUGGUAAAUGUCACTT against Olfr1427,inactive: 1.93
5,GCCAUCAAAAUCUCACAAGTT against Ate1,inactive: 2.17
6,GGAAGGACAGUCUGCUCAUTT against 2310066E14Rik,inactive: 0.259
7,GGUCUUGCUAUUUGUGAUATT against Olfr1294,inactive: -0.143
8,AACUGUACAUUGAAGCAGATT against Cstf3,inactive: 0.0178
9,GCUGUUUUGUCUCCAGCCCTT against Zbtb20,inactive: -0.38
10,GGGCAGUCAUAAAGAUACATT against Olfr131,inactive: -0.703
11,GGAUUUGAGAGCCAAUUGUTT against Abo,inactive: 0.0406
12,GGUUAUUUUUGAUGAGACCTT against Ascc2,inactive: 1.23
13,GGGCAUUUAGAAAUCUUGATT against Prkar2a,inactive: 0.438
14,GCCGUAUGGAUGUAAAUUATT against D130040H23Rik,inactive: 0.279
15,GGCUAUCCUCUUUUACCAUTT against 0610009O20Rik,inactive: 0.315
16,GUGCAGAUAUCUUUAGCAATT against Olfr159,inactive: 0.0685
17,GGAUGUGCACGAAGGACAGTT against Cdh2,inactive: 0.305
18,GGUGUUCAUUACUUUUGAGTT against Irak1bp1,inactive: -0.28
19,GCAACAAUCUGAGGACGACTT against Brunol4,inactive: -0.545
20,CCGUACAUAUGGUGAUCCATT against Rtn1,inactive: 0.133
21,GGACACUUUCUCAUAUCAUTT against Abca9,inactive: 1.17
22,GCGAUUCUGUAAAGAGCGCTT against Nme1,inactive: 0.441
23,GGCUAUGUUCACCUGUGGATT against 4933428M03Rik,inactive: 0.212
24,AGAGAGAUAUUGUUCAUCATT against BC050099,inactive: 0.604
25,CCCUAUCCAUUCAUGGCACTT against 3322402L07Rik,inactive: 1.22
26,GGAAGCUUCGAAAGUUUAUTT against Cklfsf2b,inactive: -0.498

# Looked up one by one from above:
row,Sequence,z-score
14,GCCGUAUGGAUGUAAAUUATT against D130040H23Rik,inactive: 0.279
13,GGGCAUUUAGAAAUCUUGATT against Prkar2a,inactive: 0.438

# Later entries:

row,Sequence,z-score
1,CCCAUUAAGGUAUAAUAUCTT against Olfr855,inactive: 1.06
2,GGCUACUAUACUGUUGAAGTT against 2010110O04Rik,inactive: -0.108
3,GGUCAUCAUGUCCAUCCGATT against Rpl10,inactive: -3.01
4,GGUUUACCUUUAUGCAACATT against 2410004F06Rik,inactive: 0.183
5,GGACAUUGAAGCCAUGGAUTT against Nsf,inactive: -1.48
6,GCCAUCAUGCUUUCAUGACTT against Bzrp,inactive: -0.611
7,GGUGGAGUGAUACGAAGAGTT against D330045A20Rik,inactive: -2.75
8,GGUGAUGAAAGGGAAUGGCTT against Rnf25,inactive: 0.189
9,CCCGAAGCCUUAGAUAUAATT against 9930017A07Rik,inactive: -1.37
10,GGCACAACAACUUGAAUGGTT against Man2c1,inactive: -0.157
11,GGAGCUGAUGGAAGAGAUCTT against Speer4f,inactive: 1.01
12,GCCUUUUCAUUGCACCUCCTT against 2810404F18Rik,inactive: 0.00101
13,CGUUCUUAUUACAUCUGAUTT against Mosg,inactive: 0.811
14,GCAAGUCACGAAAGAAGAGTT against Ttll4,inactive: -2.46
15,GGACUCAUGAAAUCAUACCTT against Spry1,inactive: 0.261
16,GCGUGAAGACAACAAGCAGTT against Myo1c,inactive: 0.693
17,GGGAACUACAAGCAUCCAGTT against Adm,inactive: -0.51
18,GGAUUUGUUACGGUAGUUUTT against Slc30a9,inactive: -0.00918
19,GCUACGCUAUUUUUGGCUUTT against Micl,inactive: -0.0914
20,GUUUUUGCUAUGGCUCGUATT against Hist1h3a,inactive: -1.86
21,GCCAGAAUGGAGUUACACCTT against 1110036H21Rik,inactive: 0.568
22,GGGUAGGAUUCCAGAACAUTT against Arid2,inactive: -2.19
23,CCGCUAAACUUCCAUAACCTT against Rnf123,inactive: 0.854
24,GGCUCAGAUUCUCAACAGATT against Emx2,inactive: -0.074
25,GGACUUGAGAGCAUUUGUGTT against Procr,inactive: 0.302
26,GGUAGCACAUAGUCUAAAATT against MGC58382,inactive: -0.19

# Four entries from above, reformatted.
row	Sequence	z-score
3	GGUCAUCAUGUCCAUCCGATT against Rpl10	inactive: -3.01
5	GGACAUUGAAGCCAUGGAUTT against Nsf	inactive: -1.48
11	GGAGCUGAUGGAAGAGAUCTT against Speer4f	inactive: 1.01
19	GCUACGCUAUUUUUGGCUUTT against Micl	inactive: -0.0914

# (cont.)

row,Sequence,z-score
1,CGUUAUAAUGCAUACUGUUTT against Fbn1,inactive: 1.18
2,GCCGAUUACUAUCCCGAGATT against Rasgef1c,inactive: 2.38
3,GGCUUAUAAAAUUCGGUCATT against Olig1,inactive: 0.127
4,GGAAGAGUCAAUUUUGAUGTT against Gfpt1,inactive: 1.62
5,GGAUAGAGAUUCCAAACAUTT against Lgr8,inactive: 1.36
6,GGAUUCAUCACUGACUACATT against Ddc,inactive: 0.288
7,CCACGUGGUUAUCUAUUAUTT against MGC38735,inactive: -2.1
8,GGAGGAGCAGAUAGACUCATT against 3100002P13Rik,inactive: -1.36
9,CCCGUAUCUUUUUAGCUAATT against A630038E17Rik,inactive: 0.453
10,GGAAAACUUCCAUAAAGAGTT against Bin1,inactive: 0.0422
11,GGAAAUUGGCAUCACGUUGTT against 2700067D09Rik,inactive: 0.606
12,CGCAGAGAAGGACUAUCUUTT against Ush1c,inactive: -0.07
13,GGUUAUUGUUGAGAAUCCUTT against Gpkow,inactive: 1.27
14,GGACAAUGCCCUGUAUCAGTT against Clic3,inactive: -0.462
15,GGAGACAUCAAGAGUUCUGTT against H2-M10.1,inactive: 0.545
16,GCAAUUGGUAAAGAUGAAATT against Sly,inactive: -0.297
17,GGCACAUCUCCCUAACACUTT against 2610528K11Rik,inactive: 0.06
18,UCACAAGUACAGAUCUGAATT against LOC432736,inactive: 0.297
19,GGUCCUAUGGAUUAAUGCUTT against Wisp1,inactive: 1.7
20,GGAGCAGAAGUCAAUCAGGTT against Myo1b,inactive: 0.0119
21,GGGAAAAUGCCAAGUGGAATT against Med8,inactive: 0.0539
22,GCCCAGAAUGCUCACUAAATT against Sln,inactive: 0.656
23,AACAGCAUCUUUGUGGUCCTT against Ins1,inactive: -0.451
24,GGCUUAAGCAGACGUGUCATT against Lhx8,inactive: -0.198
25,GGUAUGUAACUUCUUCAUUTT against 6430527G18Rik,inactive: 0.0592
